Results deposited as PubChem BioAssay AID1259308 (NCATS, 2017)

Screen: 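Knock-downs that increase output of a recombinant reporter protein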 (primary screen)
Cell system: human HEK293 embryonic kidney cells stably expressing firefly luciferase (HEK-CMV-Luc2-Hygro)
Reagents: single siRNA against human genes, 0.8 pmol siRNA per well
Timing: 72 h
Detection: 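Luciferase light (ONE-Glo) measured on one replicate plate set and viability (CellTiter-Glo) on the other, scaled to a negative control siRNA, with robust z-scores and luciferase per cell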
Direction: total luciferase, z-score and total luciferase, % of control: higher = more reporter protein produced; luciferase per cell, z-score: higher = more reporter output per viable cell; viable cells, % of control: higher = more viable cells
Active means: 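Active when the median/MAD z-score for overall luciferase is greater than 3; a gene was taken forward for validation with new siRNAs if at least two of its three siRNAs passed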
Calls: active = raised luciferase; inactive = no rise
The whole screen tested about 59,000 reagents; below is a part drawn at random. About 1,510 of all reagents (2.6%) count as active. 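Calls use total luciferase alone and ignore viability, so some active siRNAs may act by altering cell number.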 Entries without a mark were called inactive. The numbers tell different reagents against one gene apart.

gene,reagent no.,"total luciferase, z-score","total luciferase, % of control","luciferase per cell, z-score","viable cells, % of control"
NECAP2,1,-0.866,64.7,-0.311,78.4
NECAP2,2,-0.789,66.2,-0.974,95.6
NECAP2,3,-0.825,65.5,-1.37,105
ACO2,1,-0.866,64.7,-0.516,82.8
ACO2,2,0.0714,83.3,-0.369,103
ACO2,3,1.51,112,1.94,75.1
ELFN1,1,-0.695,68.1,-0.637,90
ELFN1,2,0.287,87.6,0.513,85.5
ELFN1,3,1.05,103,0.69,95.8
ZRANB1,1,1.27,107,0.396,108
ZRANB1,2,-0.577,70.4,0.19,74.8
ZRANB1,3,-0.156,78.8,-0.718,106
RBM4,1,2.13,124,3.52,54.9
RBM4,2,4.95 (active),180,2.25,112
RBM4,3,-0.678,68.4,-1.62,117
WDR93,1,0.989,102,0.486,99.8
WDR93,2,1.55,113,2,74.3
WDR93,3,2.6,134,1.86,91.6
ANKRD34C-AS1,1,-0.603,69.9,0.0632,76.8
ANKRD34C-AS1,2,1.28,107,1.69,76.8
ANKRD34C-AS1,3,-0.119,79.5,0.115,86.2
DYRK2,1,1.38,109,1.23,88.3
DYRK2,2,0.492,91.7,0.468,90.6
DYRK2,3,-1.43,53.5,-0.621,70.4
KCNH4,1,0.0422,82.7,-0.0173,92.9
KCNH4,2,-0.593,70.1,-0.446,88.1
KCNH4,3,1.19,106,1.62,76.9
CHD8,1,-0.174,78.4,-0.998,114
CHD8,2,0.383,89.5,-0.663,119
CHD8,3,3.67 (active),155,2.91,80.4
AOAH,1,-1.14,59.2,-0.278,71.1
AOAH,2,0.747,96.7,0.902,85.3
AOAH,3,-0.306,75.8,-0.206,89.4
FNBP1L,1,-0.215,77.6,-0.171,90.7
FNBP1L,2,0.656,94.9,0.0881,104
FNBP1L,3,-0.892,64.1,-0.942,91.9
MYO7A,1,2.27,127,1.8,88.3
MYO7A,2,-0.627,69.4,-0.55,89.7
MYO7A,3,1.2,106,2.04,69
CCDC110,1,-1.15,59.1,0.0596,65
CCDC110,2,-0.854,64.9,-1.13,97.6
CCDC110,3,0.243,86.7,-0.305,105
CORIN,1,-1.96,42.9,-2.19,85.2
CORIN,2,1.74,116,0.999,100
CORIN,3,0.303,87.9,0.0503,96.9
FAP,1,-1.19,58.1,-1.4,94
FAP,2,0.83,98.4,0.247,103
FAP,3,0.38,89.5,-0.043,101
YTHDF3,1,0.923,100,0.561,96.6
YTHDF3,2,-0.88,64.4,-0.358,79
YTHDF3,3,1.33,108,1.18,88.7
CZIB,1,-1.61,49.8,-2.01,94.6
CZIB,2,-0.966,62.7,-0.558,81.1
CZIB,3,-0.433,73.3,-0.444,92
VPS37A,1,0.0512,82.9,-0.104,95.2
VPS37A,2,1.12,104,0.307,107
VPS37A,3,-0.872,64.5,-0.744,87.7
MBNL2,1,0.0941,83.8,0.00325,93.5
MBNL2,2,-2.14,39.4,-2.34,81.6
MBNL2,3,-0.568,70.6,-0.977,102
BUB3,1,-0.031,81.3,0.54,78.8
BUB3,2,1.42,110,1.83,76
BUB3,3,-1.65,49,-1.05,72.2
ETV7,1,-0.667,68.6,-1.04,101
ETV7,2,-1.22,57.6,-1.53,96.2
ETV7,3,-0.35,74.9,0.279,77.8
PPFIA2,1,-0.135,79.2,-0.637,105
PPFIA2,2,0.0875,83.6,-0.353,103
PPFIA2,3,-0.951,63,-1.48,104
IARS2P1,1,0.614,94.1,0.829,84.5
IARS2P1,2,2.03,122,2.07,79.3
IARS2P1,3,-1.02,61.5,-0.368,75.7
HUS1,1,-1.11,59.9,0.359,60.9
HUS1,2,-0.71,67.8,-0.487,86.1
HUS1,3,0.581,93.4,0.426,93.3

5 entries from above, set out differently.
CORIN #3
- total luciferase, z-score: 0.303
- total luciferase, % of control: 87.9
- luciferase per cell, z-score: 0.0503
- viable cells, % of control: 96.9

FAP #1
- total luciferase, z-score: -1.19
- total luciferase, % of control: 58.1
- luciferase per cell, z-score: -1.4
- viable cells, % of control: 94

FAP #2
- total luciferase, z-score: 0.83
- total luciferase, % of control: 98.4
- luciferase per cell, z-score: 0.247
- viable cells, % of control: 103

FAP #3
- total luciferase, z-score: 0.38
- total luciferase, % of control: 89.5
- luciferase per cell, z-score: -0.043
- viable cells, % of control: 101

YTHDF3 #1
- total luciferase, z-score: 0.923
- total luciferase, % of control: 100
- luciferase per cell, z-score: 0.561
- viable cells, % of control: 96.6
